Publication PMC12859559
These are yes or no findings as the source states them, for the method shown. Some binding calls cover weakened binding; strength is not graded here.

Biological target: DLAT (mouse (endogenous in 4T1)) (UniProt Q8BMF4)
Assay: Western blot of oligomer bands after SDS-PAGE; RIPA lysates of 4T1 cells treated 24 h with PBS, FFC, ES-Cu, ES-Cu@FFC or ES-Cu&GOx@FFC; DLAT and DLAT oligomers detected with a DLAT antibody

binding: binds
B1: DLAT (protein, UniProt Q8BMF4 86-642)
chain: SLPPHQKVPLPSLSPTMQAGTIARWEKKEGEKISEGDLIAEVETDKATVGFESLEECYMAKILVPEGTRDVPVGSIICITVEKPQDIEAFKNYTLDLAAAAAPQAAPAAAPAPAAAPAAPSASAPGSSYPTHMQIVLPALSPTMTMGTVQRWEKKVGEKLSEGDLLAEIETDKATIGFEVQEEGYLAKILVPEGTRDVPLGAPLCIIVEKQEDIAAFADYRPTEVTSLKPQAAPPAPPPVAAVPPTPQPVAPTPSAAPAGPKGRVFVSPLAKKLAAEKGIDLTQVKGTGPEGRIIKKDIDSFVPSKAAPAAAAAMAPPGPRVAPAPAGVFTDIPISNIRRVIAQRLMQSKQTIPHYYLSVDVNMGEVLLVRKELNKMLEGKGKISVNDFIIKASALACLKVPEANSSWMDTVIRQNHVVDVSVAVSTPAGLITPIVFNAHIKGLETIASDVVSLASKAREGKLQPHEFQGGTFTISNLGMFGIKNFSAIINPPQACILAIGASEDKLIPADNEKGFDVASVMSVTLSCDHRVVDGAVGAQWLAEFKKYLEKPITMLL
